# Measurements taken from PubChem BioAssay AID1487 (National Center for Advancing Translational Sciences (NCATS), 2009).
# “And” between values parts separate entries of the source, which are not always exact repeats. Equal entries are not always repeated. The list shows a part of the results. Further columns of the screen follow, without active or inactive calls. Most of these compounds were active or inconclusive in the main read-out, so they are no random draw. The note in brackets gives the kind of curve behind each potency; many fits are weak.
# Assay: qHTS Assay for Modulators of Lamin A Splicing
# Conditions: HeLa LMNA splicing GFP/RFP minigene ratio, 48 h
# Method in brief: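 S3 HeLa cells stably expressing lamin A-EGFP splicing minigene plus DsRed2, 600 cells/well, 48 h compound exposure at 37C. Laser-scanning cytometry; analysed as GFP (500-530 nm)/RFP (575-640 nm) total intensity ratio; 0.5% DMSO vehicle.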
# [1] = measured here: RFP viability control channel
# [2] = measured here: GFP splicing reporter channel
SMILES,AC50 [1],AC50 [2]
CCOc1ccc(C(=O)/C=C/c2cc(OC)c(OC)c(OC)c2)cc1,"35.5 µM [falling, partial curve]",–
CCOc1ccc(-n2c(-c3ccc(Cl)cc3)c[n+]3c2SCC3)cc1,–,"22.4 µM [falling, partial curve, poor fit]"
COc1cc(-c2nc(-c3cccc(C)c3)no2)cc(OC)c1OC,"17.8 µM [rising, partial curve, poor fit]",–
O=C(Nc1ccc(Cl)cc1)Nc1cc(S(=O)(=O)N2CCOCC2)ccc1N1CCCC1,"12.6 µM [rising, single point]","11.2 µM [rising, single point]"
COc1cc(CCC(=O)Nc2ccc(Cl)c(C(F)(F)F)c2)cc(OC)c1OC,"20 µM [rising, partial curve]","2.51 µM [rising, partial curve]"
Cc1cc(C)c(S(=O)(=O)N2CCOC2CNC(=O)C(=O)NCc2cccnc2)c(C)c1 (stereo unspecified),"12.6 µM [rising, single point]",–
CCC(C)(C)NC(=O)CCCSc1nc2ccccc2s1,–,"1 µM [falling, partial curve]"
COCc1cc(=O)[nH]c(Sc2c(-c3ccccc3)c3ccc(Cl)cc3[nH]c2=O)n1,"6.31 µM [rising, single point]",–
C=COCCNC(=O)Nc1ccc(Cl)c(Cl)c1,"14.1 µM [rising, partial curve]",–
O=C(c1ccc(COc2ccc(Cl)cc2)o1)N1N=C(C(F)F)CC1(O)C(F)F (stereo unspecified),"22.4 µM [rising, single point]","11.2 µM [rising, partial curve]"
CC(C)C(NC(=O)C1CCC(C(C)(C)C)CC1)C(=O)NCc1cccnc1 (stereo unspecified),"20 µM [rising, single point]",–
Cc1ccc(NC(=O)C(=O)NCC(c2cccnc2)N2CCOCC2)cc1C (stereo unspecified),"35.5 µM [falling, single point]","35.5 µM [falling, single point]"
CCOC(=O)N1CCN(CCC(=O)Nc2ccc(C)c(Br)c2)CC1,"31.6 µM [rising, single point]","35.5 µM [rising, single point]"
Brc1ccc(CN2C3=NCCCN3c3ccccc32)cc1,"10 µM [rising, partial curve, poor fit]","8.91 µM [rising, partial curve, poor fit]"
O=C(Nc1cc(Sc2nc3ccccc3s2)cc([N+](=O)[O-])c1)c1cccc(F)c1F,"35.5 µM [rising, single point]",–
CCc1ccccc1N1C(=O)C2C3CC(=O)C(c4ccccc43)C2C1=O (stereo unspecified),"0.398 µM [rising, partial curve]","0.0398 µM [rising, full curve]"
O=C(Cc1coc2cc3c(cc12)CCC3)NC1CCCCCCC1,"22.4 µM [rising, partial curve]",–
COc1cc(/C=C/C(=O)c2ccc(NS(=O)(=O)c3ccc(C)cc3)cc2)cc(OC)c1O,"14.1 µM [falling, single point]","22.4 µM [falling, single point]"
COc1ccc2nc(NC(=O)CSc3nc(SC)ns3)sc2c1,"25.1 µM [rising, single point]",–

SMILES,AC50 [1],AC50 [2]
COC(=O)CCCNc1ncccc1[N+](=O)[O-],"17.8 µM [rising, partial curve]","35.5 µM [rising, single point]"
COc1ccc(OC)c(NC(=S)N2CCC(C(O)(c3ccccc3)c3ccccc3)CC2)c1,"35.5 µM [rising, single point]",–
COc1cc2oc3ccccc3c2cc1N(CC(=O)N1CCCCC1)S(=O)(=O)c1ccc(C)cc1,–,"3.16 µM [rising, single point]"
C(=C\c1ccccc1)/C=N/Nc1nc2ccccc2[nH]1,"6.31 µM [rising, full curve, poor fit]",–
Cc1ccc(CNC(=O)c2ccc(COc3ccccc3)cc2)cc1,"11.2 µM [rising, single point]","12.6 µM [rising, single point]"
CN(CCn1ccnc1)Cc1cn(-c2ccccc2)nc1-c1ccc2c(c1)OCO2,–,"0.178 µM [falling, full curve, poor fit]"
O=C(NNS(=O)(=O)c1cccc(Cl)c1)c1cc(-c2ccc(F)cc2)nc2ccccc12,–,"0.794 µM [falling, full curve, poor fit]"
Cc1nc2c(cnn2-c2ccccc2Cl)c(=O)n1-c1ccc(C(C)C)cc1,"25.1 µM [rising, single point]","35.5 µM [rising, single point]"
O=C(Nc1ccc2c(c1)oc1ccccc12)c1ccncc1,"10 µM [rising, single point]",–
CCCCC(=O)c1c(O)c2ccccc2oc1=O,"14.1 µM [rising, single point]",–
O=C(NC(=S)N1CCN(c2nc(-c3ccccc3)cs2)CC1)c1cccnc1,–,"17.8 µM [rising, single point]"
O=C(CCCc1nc(-c2ccccc2Cl)no1)NCc1cccnc1,"31.6 µM [rising, single point]",–
CCOC(=O)/C(C#N)=C/c1cccc([N+](=O)[O-])c1,–,"3.98 µM [rising, full curve, poor fit]"
Cc1noc(C)c1COC(=O)c1cccc(S(=O)(=O)N2CCCCCC2)c1,"11.2 µM [rising, partial curve]",–
Cc1cc(C)c(C(=O)CSc2nc(C)cc(C)c2C(N)=O)c(C)c1,"35.5 µM [rising, single point]","35.5 µM [rising, single point]"
CCNc1ncc2nc(-c3ccccc3)c(=O)n(C[C@H]3CCCO3)c2n1,–,"12.6 µM [falling, single point]"
COc1cccc(C2N(c3ccccc3)CCN2c2ccccc2)c1OC,–,"0.0224 µM [rising, full curve, poor fit]"
O=C1c2ccccc2S(=O)(=O)N1CC1CC(c2ccc(Cl)cc2)=NO1 (stereo unspecified),"10 µM [rising, partial curve]","11.2 µM [rising, partial curve]"
Nc1ccn([C@@H]2O[C@H](CO)[C@@H](O)[C@@H]2O)c(=O)n1,"112 nM [rising, full curve, poor fit] and 1 µM [rising, full curve]","0.0316 µM [falling, full curve]"

SMILES,AC50 [1],AC50 [2]
COc1ccc(N2CCN(c3nc4ccccc4n3CC(=O)c3ccccc3)CC2)cc1,"11.2 µM [rising, partial curve]","8.91 µM [rising, partial curve, poor fit]"
CC(C)c1ccc2c(c1)C1Cc3ccccc3C1N2 (stereo unspecified),"15.8 µM [rising, single point]",–
CCOC(=O)c1c(N)n(-c2ccc(C)c(C)c2)c2nc3ccccc3nc12,"14.1 µM [falling, single point]",–
Cc1[nH][nH]c(=O)c1C(c1ccc(-c2ccc(F)cc2)o1)c1c(C)[nH][nH]c1=O,"35.5 µM [falling, partial curve, poor fit]","35.5 µM [falling, partial curve, poor fit]"
O=c1[nH][nH]c(-c2ccccc2O)c1C(C[N+](=O)[O-])c1cccc(Cl)c1 (stereo unspecified),"17.8 µM [rising, single point]",–
COc1ccccc1OCc1csc(NC(=O)c2ccco2)n1,"15.8 µM [rising, partial curve]","11.2 µM [rising, partial curve]"
CCN1c2ccccc2-c2nc3ccccc3n2C1c1cccnc1 (stereo unspecified),"35.5 µM [rising, single point]","35.5 µM [rising, single point]"
CCN(CC)S(=O)(=O)c1ccc(NC(=O)c2ccc(CN3CCOCC3)cc2)cc1,"1.58 µM [rising, full curve]",–
O=C(Cn1ncc2c1-c1ccccc1OC2)N1CCc2ccccc21,"31.6 µM [rising, single point]",–
O=C(NCc1ccc2c(c1)CCN2C(=O)c1ccc(F)cc1)c1ccc(Br)o1,"0.00355 µM [falling, full curve, poor fit]",–
NS(=O)(=O)c1ccc(NC(=O)CN2CCCC2)cc1,–,"0.0158 µM [falling, full curve, poor fit]"
CCCOc1cccc(OCCSc2nc(C)cc(=O)[nH]2)c1,"35.5 µM [rising, partial curve]","22.4 µM [rising, partial curve, poor fit]"
O=S(=O)(Nc1ccc(-c2csc(-c3ccccc3)n2)cc1)c1ccccc1,–,"35.5 µM [falling, single point]"
COc1ccccc1NC(=O)C1=C(C)Nc2c(C(=O)Nc3ccc(F)cc3)cnn2C1c1ccc(Cl)cc1 (stereo unspecified),–,"10 µM [falling, partial curve]"
CN1c2ccccc2C(O)=C(C(=S)Nc2ccc(F)c(Cl)c2)S1(=O)=O,"14.1 µM [rising, single point]",–
O=C(Nc1ccccc1)Nc1ncc([N+](=O)[O-])s1,"5.62 µM [rising, partial curve]",–
c1ccc(-n2ncc3c(NCc4cccnc4)ncnc32)cc1,"17.8 µM [rising, single point]",–
Fc1ccc(-c2cc(C(F)(F)F)nc(NCc3cccs3)n2)cc1,"22.4 µM [rising, single point]","25.1 µM [rising, single point]"

# Reformatted: 4 of the compounds above
SMILES | AC50 [1] | AC50 [2]
CCCOc1cccc(OCCSc2nc(C)cc(=O)[nH]2)c1 | 35.5 µM [rising, partial curve] | 22.4 µM [rising, partial curve, poor fit]
O=S(=O)(Nc1ccc(-c2csc(-c3ccccc3)n2)cc1)c1ccccc1 | – | 35.5 µM [falling, single point]
COc1ccccc1NC(=O)C1=C(C)Nc2c(C(=O)Nc3ccc(F)cc3)cnn2C1c1ccc(Cl)cc1 (stereo unspecified) | – | 10 µM [falling, partial curve]
CN1c2ccccc2C(O)=C(C(=S)Nc2ccc(F)c(Cl)c2)S1(=O)=O | 14.1 µM [rising, single point] | –
